{
  "source": "patent US8487074B2",
  "about": "“Modulation of lipid rafts” (Lantmannen AS-Faktor AB, priority 2006, dated 2013)",
  "key": {"injured arteries": {"tested_on": "injured arteries", "test": "Healing of clamp-injured femoral and iliac arteries", "type": "in vivo, rats"}, "[1]": {"tested_on": "injured skin and cartilage", "type": "in vivo, rats", "description": "In an experiment it was investigated whether the administration of AF-16 affected the healing process of injured skin and cartilage, using freeze-thaw injury to a rat ear as a model system. […] In addition 1 mg AF-16 was injected intramuscularly just after the implantation of the pump. Thereafter, a freeze-thaw injury was applied by compressing the ear in a standardized manner with the aid of a Pean's forceps, chilled in liquid nitrogen. For comparison, additional rats were treated in the same way in parallel were treated with the vehicle, PBS with 15% ethanol, only and no peptide. Additionally, normal rats, which had not been exposed to any freeze-thaw injury, were used for reference as were non-injured rats having pumps with AF-16 implanted. […] On either side bordering the injured elastic cartilage in the ear there was a formation of new hyaline cartilage. […] The amount of collagen and density of inflammatory cells were reduced in the AF-16 treated animals as compared to those having had the vehicle."}, "injured skin and periost": {"tested_on": "injured skin and periost", "test": "Healing of calvarial skin wound and periost in rabbits", "type": "in vivo, New Zeeland albino rabbits", "conditions": "after a week", "description": "Adult rabbits were investigated with regard to whether the administration of AF-16 affected the healing process of injured skin and periost. […] The rabbits had either AF-16 or the vehicle injected intravenously in a marginal ear vein. The dose of AF-16 was up to 5 mg per kg body weight, twice daily. The calvarial skin wound and the injection sites in the ear were investigated macroscopically after a week. Then, specimens were dissected from both areas and prepared by fixation, embedding, sectioning and staining for light microscopic examination."}, "[2]": {"tested_on": "experimentally induced gastric wounds", "test": "Acetic acid induced gastric wounds", "type": "in vivo, rats", "conditions": "after a week, vs vehicle"}, "[3]": {"tested_on": "implanted foreign materials", "test": "Biointegration of implanted foreign materials", "type": "in vivo, rats", "conditions": "after 10 days"}, "neoplastic tumors": {"tested_on": "neoplastic tumors", "test": "Growth of neoplastic tumors, chemically induced or transplanted", "type": "in vivo, rats", "conditions": "vs vehicle"}, "[4]": {"tested_on": "experimentally induced diabetes mellitus", "test": "Streptozocin induced diabetes mellitus", "type": "in vivo, rats", "conditions": "preliminary results"}},
  "note": "Part of at least one peptide drawing is inferred or uncertain, most often the ends. No end group written: not given here.",
  "data": [
    {"sequence": "VCHSKTRSNPENNVGL [AF-16, VCHSKTRSNPENNVGL]", "values": [
      {"measurement": "Evans blue staining of luminal surface of injured arterial wall (judged visually)", "setting": "injured arteries; 10 days after injury", "value": "more than half on the area within the injured zone were unstained"},
      {"measurement": "caveolae and vesicles at plasma membrane of cells in injured vessel", "setting": "injured arteries; 10 days, vs vehicle", "value": "prominent tendency to normalization"},
      {"measurement": "mononuclear cells attached to the surface", "setting": "injured arteries; 10 days, vs vehicle", "value": "less mononuclear cells attached to the surface"},
      {"measurement": "number of leukocytes, platelets, macrophages and foam cells on and in the injured tissue (light microscopy)", "setting": "injured arteries; 10 days, vs vehicle", "value": "less"},
      {"measurement": "smooth muscle cells invading the adluminal layer", "setting": "injured arteries; 10 days, vs vehicle", "value": "to a lesser extent"},
      {"measurement": "visible clot", "setting": "injured arteries; 10 days, vs vehicle", "value": "less visible clot"},
      {"measurement": "edema and inflammation", "setting": "[1]; 2 weeks after freeze-injury, vs vehicle", "value": "less edema and inflammation"},
      {"measurement": "scar tissue formation", "setting": "[1]; injured skin and underlying cartilage", "value": "formation of less scar tissue"},
      {"measurement": "number of caveolae in cells in the injured areas", "setting": "[1]; vehicle treated ears compared with AF-16", "value": "much more prominently reduced the number of caveolae in cells in the injured areas in the vehicle treated ears"},
      {"measurement": "amount of collagen and density of inflammatory cells", "setting": "[1]; vs vehicle", "value": "reduced"},
      {"measurement": "maturity of blood vessels", "setting": "injured skin and periost", "value": "appeared more mature"},
      {"measurement": "hypertrophic scar tissue", "setting": "injured skin and periost; vs vehicle", "value": "lacked the prominent, hypertrophic scar tissue"},
      {"measurement": "inflammation of healing skin", "setting": "injured skin and periost; vs vehicle", "value": "less inflamed"},
      {"measurement": "inflammatory cells and collagen (light microscopy)", "setting": "injured skin and periost; vs vehicle", "value": "less inflammatory cells and less collagen"},
      {"measurement": "edema in the healing skin", "setting": "injured skin and periost; iv up to 5 mg per kg twice daily, vs vehicle", "value": "less edema"},
      {"measurement": "extent of abdominal adhesions", "setting": "[2]", "value": "less prominent and reduced in frequency and size"},
      {"measurement": "fluid in the abdominal cavity (ascites)", "setting": "[2]", "value": "less fluid in the abdominal cavity"},
      {"measurement": "fibroblast entry into foam implant", "setting": "[3]", "value": "fibroblasts were recognized to enter the foam implant"},
      {"measurement": "healing of the skin wound", "setting": "[3]; vs vehicle", "value": "more mature with less reactive alterations"},
      {"measurement": "mammary tumor size and frequency", "setting": "neoplastic tumors; rats that received a carcinogenic chemical", "value": "smaller mammary tumors at a lower frequency"},
      {"measurement": "effect on additional experimental tumors", "setting": "neoplastic tumors", "value": "beneficial effects"},
      {"measurement": "reactive and inflammatory changes", "setting": "neoplastic tumors", "value": "less prominent"},
      {"measurement": "blood glucose values", "setting": "[4]", "value": "appeared to be lower"},
      {"measurement": "loss of urinary glucose", "setting": "[4]", "value": "reduced"},
      {"measurement": "urine volume", "setting": "[4]", "value": "reduced"}
    ]}
  ]
}
